# This is one part of the list.
# Target: T1, OsSMF1 (Oryza sativa, UniProt Q6ZLB0 1-436)
# T1 sequence: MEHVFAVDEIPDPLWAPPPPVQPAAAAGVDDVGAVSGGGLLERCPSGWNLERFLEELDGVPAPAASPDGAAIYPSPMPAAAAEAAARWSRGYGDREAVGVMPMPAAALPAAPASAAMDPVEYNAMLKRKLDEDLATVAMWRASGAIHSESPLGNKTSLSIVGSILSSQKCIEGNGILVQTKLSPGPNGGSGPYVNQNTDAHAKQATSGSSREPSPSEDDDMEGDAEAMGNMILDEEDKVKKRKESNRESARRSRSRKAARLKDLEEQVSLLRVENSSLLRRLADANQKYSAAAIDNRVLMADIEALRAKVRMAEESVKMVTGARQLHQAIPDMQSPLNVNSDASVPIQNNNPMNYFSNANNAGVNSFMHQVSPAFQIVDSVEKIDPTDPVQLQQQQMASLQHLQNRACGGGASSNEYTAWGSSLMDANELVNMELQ
# Assay: protein-binding microarray (RPBM); PBS, 2% BSA, 51.3 ng/ul salmon testes DNA, 50 uM zinc acetate, 200 nM TF, 25 C, 1 h; high values mean tight binding
# Conditions: protein: recombinant; tags: N-terminal polyhistidine and DsRed monomer fusion (pET32a); chain copies: 2; label: CyDye5-dUTP incorporated in the synthesized complementary strand; 3' TTTTT single-stranded linker to array surface; dsDNA, one strand shown
# Summary of the method: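 An Axon 4000B scanner gave the binding signal as per-feature fluorescence intensity in arbitrary units. This followed washing of a custom Agilent array that had been incubated for 1 h at 25 °C with 200 nM protein in PBS, 2% BSA, salmon testes DNA and 50 µM zinc acetate. The proteins were transcription factors fused at the N-terminus to polyhistidine and DsRed, expressed in E. coli BL21-CodonPlus and purified on Ni–NTA.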
row,Sequence,binding signal
1,GCCGCTACATTGCACACATCAACACTAGCTTTGCATCCGTCGGAGTCACCTAGTGCAG,3470 fluorescence intensity (a.u.)
2,GACCACCAACCCAGTCACTCACTGGATACGACCAGTCAAACGGAGTCACCTAGTGCAG,3170 fluorescence intensity (a.u.)
3,GACAGTCGACACCAATTACGTTGGCAGCGAGACTCATACCCGGAGTCACCTAGTGCAG,3710 fluorescence intensity (a.u.)
4,GGTTTCTTACCAGCCATCCGATAGCCGTGTCACAACTCACCGGAGTCACCTAGTGCAG,3740 fluorescence intensity (a.u.)
5,ATTAGGCTCATTAGATTCGTCTTGCAAATTAGTCCAAGATCGGAGTCACCTAGTGCAG,3640 fluorescence intensity (a.u.)
6,GACCTCGCGAACAGCCCACACGTACGTTACTGACGCCATACGGAGTCACCTAGTGCAG,4360 fluorescence intensity (a.u.)
7,TTTGAATTTTCTGGAGCACGTCATTGTCAAGTCTCATGGACGGAGTCACCTAGTGCAG,6480 fluorescence intensity (a.u.)
8,ACGAACTCAAACTAAGTGCCATTGTTCGTGGCATGGCAACCGGAGTCACCTAGTGCAG,3360 fluorescence intensity (a.u.)
9,GAGTTTAATAATGCGCGGCAACCCCATCACGTGTTCCACACGGAGTCACCTAGTGCAG,3950 fluorescence intensity (a.u.)
10,TCTTCATCACACATGACACAGGATTCCCATGACACATGCACGGAGTCACCTAGTGCAG,5270 fluorescence intensity (a.u.)
11,TGCCGCCGCAGATGTACGGTCGCCATGGCAAGCAAGTTTGCGGAGTCACCTAGTGCAG,4160 fluorescence intensity (a.u.)
12,ATTTTGACAAAACAAAGTGAGTGTGCTAGCTGGATCCATACGGAGTCACCTAGTGCAG,3390 fluorescence intensity (a.u.)
13,CCTCCGCCTTGTCCGCGTCCACGTCCACGGCCGCCGCCACCGGAGTCACCTAGTGCAG,6310 fluorescence intensity (a.u.)
14,TGTGTCGGGGCCCTAACTTATGCAAGTTGGCCACGTCTGACGGAGTCACCTAGTGCAG,3420 fluorescence intensity (a.u.)
15,GTGCACACGTATGTATATACTATATATACATACGTATAAACGGAGTCACCTAGTGCAG,3560 fluorescence intensity (a.u.)
16,GACGGTGTCAAGGTCGACGTCATCCATGTAAGTCTCCCAACGGAGTCACCTAGTGCAG,4870 fluorescence intensity (a.u.)
17,AAAACAACGCCATGCGTACATACACGTTCATGTGCCGCGCCGGAGTCACCTAGTGCAG,3420 fluorescence intensity (a.u.)
18,CAGATTAAGCGAACAATGCCACGTGGGTCAGCACACAAGCCGGAGTCACCTAGTGCAG,21400 fluorescence intensity (a.u.)
19,TCCACCCCGTTCCCATCCCCACGCATCGCCGCACACACTGCGGAGTCACCTAGTGCAG,3300 fluorescence intensity (a.u.)
20,GTTGCAAGTTGCCTCGCCGCACGGGCTCCCGTCACGACTCCGGAGTCACCTAGTGCAG,3350 fluorescence intensity (a.u.)
21,ACCTCATCCTCATTCGTCACCACTAGTCCTCGCTGTTGTTCGGAGTCACCTAGTGCAG,32500 fluorescence intensity (a.u.)

row,Sequence,binding signal
1,GTATGGATGGATGCAGTGGAGAGAGAGGTGAGAGTAGGGGCGGAGTCACCTAGTGCAG,3170 fluorescence intensity (a.u.)
2,CACTGCTTGCGTTTCAATCCAGCCGCGTGGCACTATATCGCGGAGTCACCTAGTGCAG,3260 fluorescence intensity (a.u.)
3,TCGATCCGACGGTGGTGGCGGCGTTGGCGGCGTCCGCGGGCGGAGTCACCTAGTGCAG,3950 fluorescence intensity (a.u.)
4,AGCTTCCAAGTCAAGATATGGTCTCCACGTATTTCTCTCTCGGAGTCACCTAGTGCAG,4890 fluorescence intensity (a.u.)
5,AGTAGTAGGGCGCGACACGCGTGTACGTTGCGATAGATGTCGGAGTCACCTAGTGCAG,3330 fluorescence intensity (a.u.)
6,ACACACGCGTACATGAGTTGTGATCTGGTTGTGTATATATCGGAGTCACCTAGTGCAG,3520 fluorescence intensity (a.u.)
7,ATGAACAGTACCACTTAGGTGATACTTTACGTGGAGGCTCCGGAGTCACCTAGTGCAG,4320 fluorescence intensity (a.u.)
8,GTCGGATCCCCGCGCAATCATACACACGTGTCGCCGTCGCCGGAGTCACCTAGTGCAG,8730 fluorescence intensity (a.u.)
9,CCTTTATAGATGTGGCCCAGCCTAGTCACGTGGATATTCTCGGAGTCACCTAGTGCAG,10100 fluorescence intensity (a.u.)
10,GCACTTATGACTTTCATGGTCGAAAGAATATGTTTTGATGCGGAGTCACCTAGTGCAG,3290 fluorescence intensity (a.u.)
11,ACACACCATCTACCTAGTTGCAATTTAATTTACTCTCTCCCGGAGTCACCTAGTGCAG,3170 fluorescence intensity (a.u.)
12,TGCCAGCGATGGACAAGCAAGGTGGAGTGGGAGCTGCTGCCGGAGTCACCTAGTGCAG,37800 fluorescence intensity (a.u.)
13,CGGTGGGTCCCACCTCCCTCACCACGCGTCCCCGGCCGATCGGAGTCACCTAGTGCAG,3330 fluorescence intensity (a.u.)
14,ACCACCGCCGCCGCCGTCCCAGACACCAACTCCACCGCATCGGAGTCACCTAGTGCAG,4120 fluorescence intensity (a.u.)
15,TTGCGACCTAGAGTTGAAGGGGATCTGCACACGCGTACCTCGGAGTCACCTAGTGCAG,3710 fluorescence intensity (a.u.)
16,CGCTGACTCGGATGCCATGTCAGATAAACAACCCTCCATACGGAGTCACCTAGTGCAG,17300 fluorescence intensity (a.u.)
17,TTATTTGATCATGTTCTAGATCTTAACTACTAATCTGACTCGGAGTCACCTAGTGCAG,3610 fluorescence intensity (a.u.)
18,CGGCTCCTGATATTGTGCTTATCGATTTGGGCTGCGTCTGCGGAGTCACCTAGTGCAG,3260 fluorescence intensity (a.u.)
19,CAAATCCAGCTCCTCCTCTTCCTCTTCCACCTCCTCCGCCCGGAGTCACCTAGTGCAG,3340 fluorescence intensity (a.u.)
20,CCCACCTGTGACTCAGCGAGCCGACTGCCACGTCAGACAACGGAGTCACCTAGTGCAG,34400 fluorescence intensity (a.u.)
21,TTTGGGTGATTATCTGATGATGCTATGGTTTGGATACAATCGGAGTCACCTAGTGCAG,4460 fluorescence intensity (a.u.)

# No new results follow: entries from further up.
row,Sequence,binding signal
11,TGCCGCCGCAGATGTACGGTCGCCATGGCAAGCAAGTTTGCGGAGTCACCTAGTGCAG,4160 fluorescence intensity (a.u.)
12,ATTTTGACAAAACAAAGTGAGTGTGCTAGCTGGATCCATACGGAGTCACCTAGTGCAG,3390 fluorescence intensity (a.u.)

# — publication PMC7819943, “Rice protein-binding microarrays: a tool to detect cis-acting elements near promoter regions in rice”
